Measured values: PubChem BioAssay AID445 (National Center for Advancing Translational Sciences (NCATS), 2006)
Some of the results follow. Further columns of the screen follow, without active or inactive calls. Most of these compounds were active or inconclusive in the main read-out, so they are no random draw. Words in brackets tell the shape of the fitted curve; partial curves, single points and poor fits give uncertain potencies.

Assay: IkB Signaling
Details: ABC-DLBCL IkBa-CBG/CBR dual luciferase ratio (green luciferase fused to IkBa over red control in OCI-Ly3 lymphoma cells), 4 h; measured here: control luc red channel unless noted
Procedure, shortened: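 In this assay, an IκBα–CBG68 fusion accumulates when IKK-driven degradation is blocked; native CBR normalizes for cell number. OCI-Ly3 cells were treated 4 h with compound and doxycycline, then green and red light read after Chroma-Glo addition.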

SMILES | AC50
CCOc1ccc(CN2CCc3nc(N4CCN(c5ccccn5)CC4)ncc3C2)cc1OC | 25.1 µM [falling, partial curve]
COc1ccc(-c2coc3c2c(C)cc2oc(=O)c(CC(=O)O)c(C)c23)cc1 | 31.6 µM [falling, partial curve]
Cc1cc(C)c(S(=O)(=O)Nc2ccc3oc4c(c3c2)C(=O)CC(C)(C)C4)cc1C | 7.94 µM [falling, partial curve]
COc1cc(OC)c(NC(=O)c2cn(C3CCCC3)c(=O)c3c2c2ccccc2n3C)cc1Cl | 39.8 µM [falling, single point]
COc1cc2c(cc1OC)C(COc1ccc(F)cc1)N(C(=O)c1cccc(F)c1)CC2 (configuration not stated) | 31.6 µM [falling, partial curve]
Cc1nc2nc(SCC(=O)Nc3ccccc3Cl)nn2c(C)c1Cc1ccccc1 | 39.8 µM [falling, single point]
O=C(c1ccc(Br)cc1)N(Cc1cccs1)c1ccc(F)cc1 | 25.1 µM [falling, single point]
CN1CCN(C(=O)Cn2ncc3c4ccccc4n(Cc4ccc(F)cc4)c3c2=O)CC1 | 15.8 µM [falling, single point]
CCOCCn1ccc2c(OCC(=O)Nc3cccc([N+](=O)[O-])c3)cccc2c1=O | 2 µM [rising, full curve]
COc1cccc(C(=O)Nc2ccccc2OCc2cc(=O)n3ccccc3n2)c1 | 10 µM [falling, partial curve]
Cc1cccn2c(=O)c(/C=C(\C#N)c3nc4ccccc4s3)c(Oc3ccc(F)cc3)nc12 | 39.8 µM [falling, single point]
Cc1cc(N(CCO)Cc2ccccc2)n2nc(-c3ccc(C(C)(C)C)cc3)nc2n1 | 31.6 µM [falling, single point]
Cc1cc(C(=O)NCCC2=CCCCC2)c(C)o1 | 39.8 µM [rising, single point] [measured here: IkB-luc green channel]
Cc1ccc(C)c(N2CCN(C(=O)c3cc(S(=O)(=O)N4CCOCC4)ccc3F)CC2)c1 | 15.8 µM [falling, partial curve]
CCc1ccc(Nc2nnc(-n3nc(C)cc3C)c3ccccc23)cc1 | 0.251 µM [rising, single point]
Cc1cccc(NC(=O)CNc2cc(C)ccc2C)c1 | 15.8 µM [falling, partial curve]
Cc1ccccc1C(=O)NCCc1sc(-c2ccc(Cl)cc2)nc1C | 1 µM [falling, full curve, poor fit]

A section of the results above:
SMILES | AC50
Cc1nc2nc(SCC(=O)Nc3ccccc3Cl)nn2c(C)c1Cc1ccccc1 | 39.8 µM [falling, single point]
O=C(c1ccc(Br)cc1)N(Cc1cccs1)c1ccc(F)cc1 | 25.1 µM [falling, single point]
CN1CCN(C(=O)Cn2ncc3c4ccccc4n(Cc4ccc(F)cc4)c3c2=O)CC1 | 15.8 µM [falling, single point]
CCOCCn1ccc2c(OCC(=O)Nc3cccc([N+](=O)[O-])c3)cccc2c1=O | 2 µM [rising, full curve]
